Assay results taken from paper PMC7847993.
These are yes or no findings as the source states them, for the method shown. Binding seen in cells or lysates may run through a third protein. Binding can be weak; no strength is given.

Biological target: T1, Arabidopsis PIP2;7 (Arabidopsis thaliana) (UniProt P93004)
T1 sequence: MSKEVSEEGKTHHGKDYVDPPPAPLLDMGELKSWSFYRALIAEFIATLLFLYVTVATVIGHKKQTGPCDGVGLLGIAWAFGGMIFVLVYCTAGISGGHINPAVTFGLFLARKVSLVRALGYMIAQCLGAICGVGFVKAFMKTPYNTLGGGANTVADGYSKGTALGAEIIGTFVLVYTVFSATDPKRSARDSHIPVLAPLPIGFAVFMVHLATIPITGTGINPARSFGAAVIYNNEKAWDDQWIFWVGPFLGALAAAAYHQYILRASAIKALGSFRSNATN
Assay: split reporter; ratiometric BiFC (pBiFCt-2in1-NN vector, p35S): nEYFP-SNARE and cEYFP-PIP co-expressed in N. benthamiana leaf cells, imaged 3 days after agro-infiltration; YFP/RFP ratio at the plasma membrane compared with SYP121/PIP2;7 (positive) and SNAP33/PIP2;7 (negative)

| binding | Substance |
| --- | --- |
| binds | SYP121ΔN (Arabidopsis thaliana) (domain or fragment) |
| binds | ZmSYP121 (maize (Zea mays)) |
